{"sequences": {"note": "Sequences of proteins named here, by UniProt entry; tags and fusion partners are left off. A change or cut given only in a name is not applied to a line headed by its entry.", "UniProt P04386": "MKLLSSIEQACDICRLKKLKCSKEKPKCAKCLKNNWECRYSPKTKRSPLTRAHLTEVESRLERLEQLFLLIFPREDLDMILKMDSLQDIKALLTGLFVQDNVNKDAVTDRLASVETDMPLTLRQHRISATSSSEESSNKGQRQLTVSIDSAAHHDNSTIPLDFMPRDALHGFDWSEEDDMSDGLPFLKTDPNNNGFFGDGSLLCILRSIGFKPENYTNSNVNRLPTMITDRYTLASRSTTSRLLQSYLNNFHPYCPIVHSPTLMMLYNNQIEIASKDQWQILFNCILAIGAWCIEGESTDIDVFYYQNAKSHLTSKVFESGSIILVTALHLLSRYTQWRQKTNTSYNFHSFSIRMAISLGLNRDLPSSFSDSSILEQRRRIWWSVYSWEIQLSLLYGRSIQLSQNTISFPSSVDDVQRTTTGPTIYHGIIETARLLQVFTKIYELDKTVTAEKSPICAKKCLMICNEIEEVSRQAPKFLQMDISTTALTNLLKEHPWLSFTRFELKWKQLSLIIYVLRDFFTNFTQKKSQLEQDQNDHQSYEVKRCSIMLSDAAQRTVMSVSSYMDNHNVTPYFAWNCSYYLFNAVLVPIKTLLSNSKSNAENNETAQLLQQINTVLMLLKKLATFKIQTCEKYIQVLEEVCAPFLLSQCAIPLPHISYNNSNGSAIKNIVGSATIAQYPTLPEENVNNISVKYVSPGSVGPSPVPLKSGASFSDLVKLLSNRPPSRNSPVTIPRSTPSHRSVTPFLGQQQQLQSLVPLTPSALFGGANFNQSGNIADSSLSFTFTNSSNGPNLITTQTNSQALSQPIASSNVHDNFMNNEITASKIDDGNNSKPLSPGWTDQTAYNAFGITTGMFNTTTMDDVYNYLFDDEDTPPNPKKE"}, "source": "patent US20040210950A1", "key": {"[1]": {"molecular_target": "T1, full-length mouse CnA-α fused to the GAL4 DNA binding domain (yeast; mouse) (UniProt P04386+P63328)", "assay": "yeast two-hybrid screen, GAL4 DNA binding domain-CnA-α as bait, heart cDNA library"}, "[2]": {"molecular_target": "T1, full-length mouse CnA-α fused to the GAL4 DNA binding domain (yeast; mouse)", "assay": "yeast two-hybrid screen"}}, "note": "Results are given in words; binding and its absence hold for the method and conditions named. Some entries that bind do so weakly or less than the wild type."}
{"binder": "calsarcin-1 (cDNA clone found in the two-hybrid screen with CnA-α as bait) (protein, not shown: large carriers) MLSHNTMMKQRKQQATAIMKEVHGNDVDGMDLGKKVSIPRDIMLEELSHLSNRGARLFKMRQRRSDKYTFENFQYQSRAQINHSIAMQNGKVDGSNLEGGSQQAPLTPPNTPDPRSPPNPDNIAPGYSGPLKEIPPEKFNTTAVPKYYQSPWEQAISNDPELLEALYPKLFKPEGKAELPDYRSFNRVATPFGGFEKASRMVKFKVPDFELLLLTDPRFMSFVNPLSGRRSFNRTPKGWISENIPIVITTEPTDDTTVPESEDL", "values": [{"measurement": "binding", "setting": "[1]", "value": "binds"}, {"measurement": "binding", "setting": "[2]", "value": "binds"}]}
